Source: article PMC12007089, “Applying Isothermal Titration Calorimetry and Saturation Transfer Difference-NMR to Study the Mode of Interaction of Flavan-3-ols with α-Amylase to Understand Their Impact on Starch Hydrolysis” (Journal of Agricultural and Food Chemistry, 2025)
Like-named read-outs stand apart in the source and are kept apart here.

Key:
[1] = parameters: method as in PMID 16791908; conditions: cited from earlier work
Rotamer ratios by NMR = assay type: physicochemical
[2] = Heat generation from dilution and mixing (ITC, ligand into buffer); conditions: 4 mM flavan-3-ol into buffer, 298 K, n = 2
[3] = aqueous methanol (1:1), 50% methanol

In the case of Oc1cc(O)c2c(c1)O[C@H](c1ccc(O)c(O)c1)[C@H](O)[C@H]2c1c(O)cc(O)c2c1O[C@H](c1ccc(O)c(O)c1)[C@H](O)C2 [PC B2, procyanidin B2], the “proportion of the minor extended rotamer” value ([1]; hydro-alcoholic media) is given as 47%, the “proportion of the minor extended rotamer” value ([1]; water / aqueous media) is given as 45% and the “proportion of the minor rotamer” value (Rotamer ratios by NMR; [3]) is given as 55%. For the same compound, the “proportion of the minor rotamer” value (Rotamer ratios by NMR; phosphate buffer) was 25%, the “heat area (heat development)” value [2] was 2,19±0,53 µJ and the “max. heat rate (intensity of the peak)” value [2] was 0,11±0,01 µJ/s.

For Oc1cc(O)c2c(c1)O[C@H](c1ccc(O)c(O)c1)[C@H](O)[C@H]2c1c(O)cc(O)c2c1O[C@H](c1ccc(O)c(O)c1)[C@@H](O)C2 [PC B1, procyanidin B1], the “proportion of the minor extended rotamer” value ([1]; hydro-alcoholic media) is listed as 8%, the “proportion of the minor extended rotamer” value ([1]; water / aqueous media) is listed as 5% and the “proportion of the minor rotamer” value (Rotamer ratios by NMR; [3]) is listed as 33%. The “proportion of the minor rotamer” value (Rotamer ratios by NMR; phosphate buffer) was “only traces”, the “heat area (heat development)” value [2] was 3,10±0,29 µJ and the “max. heat rate (intensity of the peak)” value [2] was 0,19±0,01 µJ/s.

In the case of Oc1cc(O)c2c(c1)O[C@H](c1ccc(O)c(O)c1)[C@H](O)C2 [EC, (−)-Epicatechin], the “heat area (heat development)” value [2] is reported as 2,03±0,14 µJ and the “max. heat rate (intensity of the peak)” value [2] is reported as 0,10±0,01 µJ/s.

For Oc1cc(O)c2c(c1)O[C@H](c1ccc(O)c(O)c1)[C@@H](O)C2 [CAT, (+)-Catechin], the “heat area (heat development)” value [2] was 8,08±0,89 µJ and the “max. heat rate (intensity of the peak)” value [2] was 0,56±0,03 µJ/s.
